Assay: Sensory evaluation of pungent (spicy) flavor
Parameters: key to Spicy flavor at evaluated concentration: +++: Extremely potent spicy flavor; ++: Very spicy flavor; +: Somewhat spicy flavor; ±: Slight spicy flavor; −: No spicy flavor
Settings: for Threshold value (concentration at which pungent flavor is perceived): diluted with distilled water, tested from the lowest concentration

| Compound | Spicy flavor at evaluated concentration (10^−3 mol/L in distilled water) | Spicy flavor at evaluated concentration (10^−4 mol/L in distilled water) | Spicy flavor at evaluated concentration (10^−5 mol/L in distilled water) | Spicy flavor at evaluated concentration (10^−6 mol/L in distilled water) | Spicy flavor at evaluated concentration (10^−7 mol/L in distilled water) | Spicy flavor at evaluated concentration (10^−8 mol/L in distilled water) | Threshold value (concentration at which pungent flavor is perceived) |
| --- | --- | --- | --- | --- | --- | --- | --- |
| COc1cc(CNC(=O)CCCC/C=C/C(C)C)ccc1O [Capsaicin] | +++ | ++ | + | ± | ± | − | about 10^−7 mol/L |
| CCCCCCCC(=O)CCc1ccc(O)c(OC)c1 [Paradol, 1-(4′-hydroxy-3′-methoxyphenyl)-3-decanone] | + | ± | − | − | − | − | 10^−4 mol/L |
